Assay [1] concerns the target T1, Flag.NPHP1-237-670 (human) (UniProt O15259).
T1 sequence: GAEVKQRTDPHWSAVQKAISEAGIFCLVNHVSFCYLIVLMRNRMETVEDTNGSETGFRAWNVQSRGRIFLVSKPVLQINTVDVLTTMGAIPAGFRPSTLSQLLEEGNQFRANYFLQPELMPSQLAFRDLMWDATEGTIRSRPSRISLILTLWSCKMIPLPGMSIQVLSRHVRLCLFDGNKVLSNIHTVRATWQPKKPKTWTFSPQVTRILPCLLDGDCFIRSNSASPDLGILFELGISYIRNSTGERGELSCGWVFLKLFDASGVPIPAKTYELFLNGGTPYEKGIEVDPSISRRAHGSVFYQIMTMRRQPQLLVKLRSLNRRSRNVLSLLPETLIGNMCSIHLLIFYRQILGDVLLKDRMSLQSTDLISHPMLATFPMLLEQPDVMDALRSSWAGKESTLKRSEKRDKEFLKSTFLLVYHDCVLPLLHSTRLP
The assay can be described thus: co-IP; both partners overexpressed with tags in co-transfected HEK293T cells; lysis in CelLytic M with protease and phosphatase inhibitors; lysates incubated 2 h with anti-Flag M2 affinity gel, washed, Western blot. In general terms: A western blot detects proteins with antibodies after separation by electrophoresis.

The chains behind the UniProt entries cited, without tags or fusion partners.
UniProt P53350: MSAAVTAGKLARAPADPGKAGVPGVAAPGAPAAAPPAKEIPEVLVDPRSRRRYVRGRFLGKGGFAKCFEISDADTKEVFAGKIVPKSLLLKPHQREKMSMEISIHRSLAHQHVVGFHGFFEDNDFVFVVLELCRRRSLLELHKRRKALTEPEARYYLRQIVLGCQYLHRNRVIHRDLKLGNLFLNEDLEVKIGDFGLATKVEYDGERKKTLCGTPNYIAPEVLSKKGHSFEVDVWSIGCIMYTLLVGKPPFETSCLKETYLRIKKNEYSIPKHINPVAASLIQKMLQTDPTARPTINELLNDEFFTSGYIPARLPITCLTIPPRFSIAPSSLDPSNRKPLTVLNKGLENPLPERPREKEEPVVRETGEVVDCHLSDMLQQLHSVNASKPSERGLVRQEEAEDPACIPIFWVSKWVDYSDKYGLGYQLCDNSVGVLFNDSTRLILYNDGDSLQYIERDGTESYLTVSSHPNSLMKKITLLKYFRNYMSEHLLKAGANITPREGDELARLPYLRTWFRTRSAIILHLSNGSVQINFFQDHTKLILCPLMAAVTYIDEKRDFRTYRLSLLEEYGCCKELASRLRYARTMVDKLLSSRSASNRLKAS

Assay [2] has as its target T2, Flag-tagged nephrocystin-1 (Flag.NPHP1) (human) (UniProt O15259).
T2 sequence: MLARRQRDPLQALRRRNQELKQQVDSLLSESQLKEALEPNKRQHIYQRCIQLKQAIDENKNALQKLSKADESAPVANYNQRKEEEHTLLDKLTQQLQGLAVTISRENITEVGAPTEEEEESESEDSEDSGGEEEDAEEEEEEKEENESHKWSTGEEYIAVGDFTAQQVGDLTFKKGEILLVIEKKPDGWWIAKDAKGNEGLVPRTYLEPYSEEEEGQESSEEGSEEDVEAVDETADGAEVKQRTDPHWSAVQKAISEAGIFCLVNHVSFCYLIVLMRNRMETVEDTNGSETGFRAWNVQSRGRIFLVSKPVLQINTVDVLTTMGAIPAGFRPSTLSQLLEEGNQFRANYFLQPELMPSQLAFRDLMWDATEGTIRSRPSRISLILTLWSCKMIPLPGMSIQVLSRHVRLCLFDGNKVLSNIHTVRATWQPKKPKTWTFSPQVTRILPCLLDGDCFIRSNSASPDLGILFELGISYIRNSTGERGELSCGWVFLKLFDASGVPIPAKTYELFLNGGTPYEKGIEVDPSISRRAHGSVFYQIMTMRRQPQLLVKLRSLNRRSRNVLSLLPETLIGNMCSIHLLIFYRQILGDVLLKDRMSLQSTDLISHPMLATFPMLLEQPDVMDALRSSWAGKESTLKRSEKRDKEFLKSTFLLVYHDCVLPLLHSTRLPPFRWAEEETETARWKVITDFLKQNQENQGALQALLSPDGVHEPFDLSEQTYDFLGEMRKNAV
The assay is described as above.

For assay [3], the target named is T3, Flag.NPHP-481-732 (human) (UniProt O15259).
T3 sequence: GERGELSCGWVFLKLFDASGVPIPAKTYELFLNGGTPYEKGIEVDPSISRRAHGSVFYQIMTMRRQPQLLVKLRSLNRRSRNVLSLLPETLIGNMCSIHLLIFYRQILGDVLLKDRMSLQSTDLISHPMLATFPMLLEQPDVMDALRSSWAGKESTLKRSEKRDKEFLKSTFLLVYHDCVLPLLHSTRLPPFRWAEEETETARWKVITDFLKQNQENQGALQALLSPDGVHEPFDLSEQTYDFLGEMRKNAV
The assay is described as above.

For assay [4], the target named is T2, Flag-tagged nephrocystin-1 (Flag.NPHP1) (human). The assay can be described thus: co-IP; Flag-tagged bait overexpressed in HEK293T cells, endogenous Plk1 as prey; anti-Flag M2 affinity gel 2 h, Western blot with an antibody against Plk1.

These are yes or no findings as the source states them, for the method shown. Binding seen in cells or lysates may run through a third protein. Some results given as binding are weak or reduced against the parent protein; the word gives no strength. Tags and fused reporters may be left off the sequences shown.

Consider “Myc-tagged Polo-like kinase 1 (myc.PLK1) (from UniProt P53350 1-603) (enzyme)”, for which the binding result in assay [1], in assay [2] and in assay [3] was “binds” throughout.

Consider “endogenous Polo-like kinase 1 (Plk1) (from UniProt P53350 1-603) (enzyme)”, for which, in assay [4], the binding result is reported as “binds”.

The values above are taken from publication PMC3372538.
